Results are given in words; binding and its absence hold for the method and conditions named. In cells and extracts the contact can be indirect. Here binding means that the protein was enriched with, or labelled near, the bait; the list need not be complete.
B1: translation initiation factor eIF3c (protein, UniProt O14164 1-918)
chain: MSRFFKGGSSDSDAESVDSSEENRLTSSRLKKQDDSSSEEESSEEESASSSESESSEEESESEESEVEVPKKKAVAASEDSESDSESSEEEEETESEEDSEVSDESESESESESESEEESESEEESDESERSGPSSFLKKPEKEEAKPAGLKFLRGESSEESSDEEEGRRVVKSAKDKRYEEFISCMETIKNAMSSNNWIVVSNEFDHLNKVSQKCKEAGRNPPPYIEFLSALDQKLESADKAFIKSLDAANGRAFNALKQRVRKNNRQFQSDIDRYRKDPEGFMKPAELNEIPKPAGKAGQDEVIVDGVATRGIVAPTEGLGKPEEITPADIFKYLRAIFEARGKKSTDRSEQIRLLEKLSTIAVTDYQRLRVKVALLAVRFDINTGSGQYMPIDQWNAALTELHSILDIFDANPKIVIVEQVEDENEEEEEAIAAAENNNGVIQVQGSVVSFLERLDDEFTRSLQMIDPHTPEYIDRLKDETSLYTLLVRSQGYLERIGVVENTARLIMRRLDRVYYKPEQVIRANEEVAWRSFPPTFDLTITPRATTTTPDILIHSLCVYLYNNGVSLLRTRAMLCHIYHEALQNRFYKARDMLLMSHLQDSVHAADIATQILHNRTMVQIGLCAFRNGMVQETQYALQDISTTGRVKELLGQGIQAPKFGQFTPDQDRLDKQLVLPFHMHINLELLECVYLTCSMLMEIPAMAAASSTASDSRKRVISRPFRRMLEYIDRQLFVGPPENTREYIMQASKALADGEWRRCEEFIHAIKIWSLMPDADKIKQMLSEKIREEGLRTYLLAYAAFYDSVSLEFLATTFDLPVQRVTVIVSRLLSKREIHAALDQVHGAIIFERVEINKLESLTVSLSEKTAQLNEANEKLYEQKTQHTNPQENRRRDKGGSVKRRNERTENRNRSDMN
B2: nop9 (protein, UniProt Q92347 1-655)
chain: MPKKRKTRGKKHSAKQKEEEVNSVVSPGIAKNDEGAGNDEGAYQVNRYTNEPVQPFFGALDPEEEKYFQQAEQAFANHFTRENEDTRFFVDSIYREVQGKELIVCNNVFGSKVLEKLFPLSTSRQIKSFFSALNGHYVELIQTTFGSYAFEKLLSHMAAILNLETQGVTEDQDDVLEGENENVFMTAETLLMYMYNEIRPEVSMLMSHKLAVHVLGKIFLLLDGYRFVYHDGNRTTMESISVPESFPQFAYSIIDSATDNLDTPELRAYCVDKYASQIMRAFIRIDFERSKKTKKKHDPRLVSKLLLSNEYDLKELPFMETLLKDETGSRILEVIVENMSASHLLRFYAVFEGRFYRLCVHPIANFIMQRYIRRLGRKEIGSVIDELKKNTDNIIRKSFLPVLRTLLEKSNHLHCYQDDIFSMIQTSVTNSGKDANIIPCLLRSKHKRDKANPENKERKLVNNLLGAQLLEEMLHCEKQHIQLLLDSVLDLSKEQILEYCLETVSSHLIEGILDLSDLNPVFLKKFLNILSGSFATLAVSAPGSHIVDKAWKATRALPLYRTRIVRELAEGGDDVKFDFYGKKVCSNWKVELFRRAPDEWYRFMKQDEPSKRVHERARQYGRIVSGSSANTQPLGEKRSTENDEELESGPKRVKV
B3: poly(A)-binding protein (protein, UniProt P31209 1-653)
chain: MPSTDLKKQADAAVESDVNTNNEAVESSTKEESSNTPSTETQPEKKAEEPEAAAEPSESTSTPTNASSVATPSGTAPTSASLYVGELDPSVTEAMLFELFNSIGPVASIRVCRDAVTRRSLGYAYVNFHNMEDGEKALDELNYTLIKGRPCRIMWSQRDPSLRKMGTGNVFIKNLDPAIDNKALHDTFSAFGKILSCKVAVDELGNAKGYGFVHFDSVESANAAIEHVNGMLLNDKKVYVGHHVSRRERQSKVEALKANFTNVYIKNLDTEITEQEFSDLFGQFGEITSLSLVKDQNDKPRGFGFVNYANHECAQKAVDELNDKEYKGKKLYVGRAQKKHEREEELRKRYEQMKLEKMNKYQGVNLFIKNLQDEVDDERLKAEFSAFGTITSAKIMTDEQGKSKGFGFVCYTTPEEANKAVTEMNQRMLAGKPLYVALAQRKEVRRSQLEAQIQARNQFRLQQQVAAAAGIPAVQYGATGPLIYGPGGYPIPAAVNGRGMPMVPGHNGPMPMYPGMPTQFPAGGPAPGYPGMNARGPVPAQGRPMMMPGSVPSAGPAEAEAVPAVPGMPERFTAADLAAVPEESRKQVLGELLYPKVFVREEKLSGKITGMLLEMPNSELLELLEDDSALNERVNEAIGVLQEFVDQEPGFTE
B4: translation initiation factor eIF3a (protein, UniProt O74760 1-932)
chain: MAPPQGKPENVLRLADELIALDQHSSALQSLHETIVLKRSRNAQGFSLEPIMMRFIELCVHLRKGKIAKEGLYTYKNAVQNTSVTAIENVVKHFIELANKRVQEAQEKADKISVEYVDDLEATETPESIMMSLVSGDLSKSRTDRALVTPWLKFLWDAYRTVLDILRNNARLEVMYQLIANSAFQFCLKYQRKTEFRRLCELLRSHLGNASKFSNAPHSINLNDAETMQRHLDMRFSQLNVAVELELWQEAFRSIEDIHSLLTFSKRAPAAVMLGNYYRKLIKIFLVCDNYLLHAAAWNRYFTFTNVQKPATANFVILSALSIPIIDANKLSGPSIEAEDAKSKNARLALLLNLSKTPTRETLIKDAISRGVLSFCDQAIRDLYQILEVEFHPLSICKKLQPIIKRLAESNDTAQYIRPLQQVILTRLFQQLSQVYDSISLKYVMDLATFEEPYDFNPGQIEKFIMNGNKKGAFSIRLNHIENSISFSSDLFSNPIKSSDSVSLQSTPSELITSQLTRIAKSLSSVLMRFDTDFCLLRKQQAEAAYERAQAGVEQERKAVIAQRSLLELRRGQADTLATQREAELAAQRALKQKQESEAESLRVQEEINKRNAERIRREKEAIRINEAKKLAEELKAKGGLEVNAEDLEHLDADKLRAMQIEQVEKQNKSMNERLRVIGKRIDHLERAYRREAIPLWEEDAKQQAEHDREIFYEREKQRKEVQERKHEQAIKDKKAFAQFASYIHAYKQNIDDERDKAYQEAYAKAKNVIDAERERQRKEIFEQKLAEAIREAEEEAARAAEEEANRELHEQEEAQKRAIEERTRAAREAKEREQREMAEKLERQRRIQQERDEEISRKLAEKAAARRANIGASSPSPGAWRRGGASAGGVSRDSPRYSRGGYSRGSVPPRETLAPSKGAYVPPSRRNQQQQ
B5: eIf4G (protein, UniProt Q10475 1-1403)
chain: MSSKPPSNTPKFSYARALASSQSNKSNSTKASENNTATAEKQAVKPSGVEPTNTSRANAQKKTESTGKITSEADTEKYNSSKSPVNKEGSVEKKSSEKSSTNNKPWRGDNTSKPSANSSAERTSSQHQKPETSSQIGKDNAAPVENVNEKSTSQETAPPVSTVPIQFGSITRNAAIPSKPKVSGNMQNKSGVSSYSSKSQSVNSSVTSNPPHTEEPVAAKPEASSTATKGPRPTTSASNTNTSPANGAPTNKPSTDINTTDPATQTTQVSASNSPALSGSSTPSNTSSRSNRQNHGNFSEKRHYDRYGNSHPSYNKYSHYQHGFNYNNSGNNRNESGHPRFRNSRRNYNNQGAYPTYMSNGRSANQSPRNNPQNVNNGSTPIQIPVSLQTPYGQVYGQPQYIVDPNMVQYGPILQPGYVPQYYPVYHQTPYTQNFPNMSRSGSQVSDQVVESPNSSTLSPRNGFAPIVKQQKKSSALKIVNPVTHTEVVVPQKNASSPNPSETNSRAETPTAAPPQISEEEASQRKDAIKLAIQQRIQEKAEAEAKRKAEEKARLEAEENAKREAEEQAKREAEEKAKREAEEKAKREAEEKAKREAEENAKREAEEKAKREAEEKAKREAEEKAKREAEEKAKREAEEKAKREAEEKAKREAEEKAKREAEENAKREAEEKAKREAEENAKREAEEKVKRETEENAKRKAEEEGKREADKNPEIKSSAPLASSEANVDTSKQTNATEPEVVDKTKVEKLKASEGKSTSSLSSPSHSTSSKRDLLSGLESLSLKTNPKSEQCLESLLNSQFITDFSALVYPSTIKPPSTEEALKAGKYEYDVPFLLQFQSVYTDKPMKGWDERMKETVASAFSDKSSRGMYSSSRQSSRSGSNTHSHAGPGFGGPSERKGISRLGIDRGFSSSGAGFGSGSNYKSAPSRGVSHHGHGGMSGSHRGSQRGSRRGGGERDKPDPSSLTIPVDQVAPLQLSANRWQPKKLTEKPAETKGEDEEALLPPEVVQRKVKGSLNKMTLEKFDKISDQILEIAMQSRKENDGRTLKQVIQLTFEKATDEPNFSNMYARFARKMMDSIDDSIRDEGVLDKNNQPVRGGLLFRKYLLSRCQEDFERGWKANLPSGKAGEAEIMSDEYYVAAAIKRRGLGLVRFIGELFKLSMLSEKIMHECIKRLLGNVTDPEEEEIESLCRLLMTVGVNIDATEKGHAAMDVYVLRMETITKIPNLPSRIKFMLMDVMDSRKNGWAVKNEVEKGPKTIAEIHEEAERKKALAESQRPSSGRMHGRDMNRGDSRMGGRGSNPPFSSSDWSNNKDGYARLGQGIRGLKSGTQGSHGPTSLSSMLKGGSVSRTPSRQNSALRREQSVRAPPSNVAVTSANSFELLEEHDHDNDGGQKDSNSKTSS
B6: 19 S proteasome regulatory subunit Rpt1 (protein, UniProt O42931 1-438)
chain: MPPKEDWEKYQKPVDTEEENDKNPPPLDEGDIELLKSYATGPYARELAAIKEDTEAVLKRINDTVGIKESDTGLAPISFWDVAADRQRMSEEQPLQVARCTKIIENEQSAEKNAYVINLKQIAKFVVSLGERVSPTDIEEGMRVGCDRNKYAIQLPLPPKIDPSVTMMQVEEKPDVTYGDVGGCKEQIERLREVVELPLLSPERFVKLGIDPPKGIMLYGPPGTGKTLCARAVANRTDATFIRVIGSELVQKYVGEGARMVRELFEMARTKKACIIFFDEIDAIGGARFDDGAGGDNEVQRTMLELITQLDGFDPRGNIKVLFATNRPNTLDEALMRPGRIDRKVEFGLPDLEGRAHILRIHAKSMAIDKDIRWELIARLCPSQTGAELRSVCTEAGMFAIRARRRVATEKDFLDAVQKVVKGNQKFSSTADYMNMSS

Amino acid sequences for entries named in this document (tags omitted).
UniProt P04150: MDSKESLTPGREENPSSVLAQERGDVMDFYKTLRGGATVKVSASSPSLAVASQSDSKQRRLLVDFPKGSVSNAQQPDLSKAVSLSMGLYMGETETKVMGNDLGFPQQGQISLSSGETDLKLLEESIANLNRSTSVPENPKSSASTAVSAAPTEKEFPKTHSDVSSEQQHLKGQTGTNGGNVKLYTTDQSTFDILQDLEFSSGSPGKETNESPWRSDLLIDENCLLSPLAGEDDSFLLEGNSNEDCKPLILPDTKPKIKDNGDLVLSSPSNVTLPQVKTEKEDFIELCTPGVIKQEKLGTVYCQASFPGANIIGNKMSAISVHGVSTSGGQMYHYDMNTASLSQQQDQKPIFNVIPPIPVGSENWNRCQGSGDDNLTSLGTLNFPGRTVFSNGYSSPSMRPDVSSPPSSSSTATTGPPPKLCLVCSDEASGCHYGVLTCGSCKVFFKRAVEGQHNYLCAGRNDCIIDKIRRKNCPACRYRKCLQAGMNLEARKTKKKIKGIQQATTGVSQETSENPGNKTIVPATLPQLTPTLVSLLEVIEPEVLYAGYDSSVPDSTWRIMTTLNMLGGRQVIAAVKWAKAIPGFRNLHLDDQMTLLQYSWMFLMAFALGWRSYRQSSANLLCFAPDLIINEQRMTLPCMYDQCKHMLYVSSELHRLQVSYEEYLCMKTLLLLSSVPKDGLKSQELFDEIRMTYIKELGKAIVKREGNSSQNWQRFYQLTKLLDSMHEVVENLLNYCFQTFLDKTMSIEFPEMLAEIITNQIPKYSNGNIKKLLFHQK

Biological target: human glucocorticoid receptor alpha (GRα), expressed in S. pombe (human) (UniProt P04150)
Assay: affinity purification with mass spectrometry; anti-GR antibody on epoxy-activated magnetic beads; lysates of S. pombe expressing hGRα (empty vector as control) grown at 30 °C or 39 °C (heat shock 30 min); lysis buffer 250 mM NaCl, 20 mM Tris pH 7.5, 1% Triton X-100, 100 mM potassium acetate; 4 °C, 1 hour, 6 washes; SDS-PAGE and LC-MS/MS

Binder | binding
B1 | binds
B2 | binds
B3 | binds
B4 | binds
B5 | binds
B6 | binds
